Values from PubChem BioAssay AID743458 (Peter MacCallum Cancer Centre, 2014).

Aim: 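Identify genes whose loss lifts vorinostat resistance in colon cancer cells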 (follow-up of hits)
Cells: human HCT116-VR colon cancer cells made resistant to vorinostat
Knock-down reagent: single siRNA or pool against human genes, 25 nM per single siRNA
Timing: about 72 h after transfection, including 24 h of drug
Challenge: vorinostat, 2.5 µM final, for 24 h
Detection: 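Cell viability by fluorescence and apoptosis by caspase 3/7 luminescence under vorinostat, background-corrected, averaged across two plate copies and given as fold change versus mock transfection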
Direction: viability relative to mock: higher = more living cells than mock; caspase activity relative to mock: higher = more apoptosis than mock
Hit rule: 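Active means a reduced-viability or caspase-activation class, anything else inactive; classes could only be given to wells that looked healthy when left untreated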
Shown is an unselected part of about 1,800 reagents tested. 732 of all reagents (41%) were called active. 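Calls are per siRNA reagent; a gene was deemed confirmed only if most of its four siRNAs scored.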 Reagents against one gene are numbered here. Reagent sequences are not shown.

QTRT1 #1
- viability relative to mock: 0.53
- caspase activity relative to mock: 3.52
- viability hit class: reduced viability
- caspase hit class: caspase activation
- Outcome: active

QTRT1 #2
- viability relative to mock: 0.91
- caspase activity relative to mock: 1.7
- viability hit class: no change
- caspase hit class: no change
- Outcome: inactive

QTRT1 #3
- viability relative to mock: 0.82
- caspase activity relative to mock: 1.75
- viability hit class: no change
- caspase hit class: no change
- Outcome: inactive

QTRT1 #4
- viability relative to mock: 0.94
- caspase activity relative to mock: 1.31
- viability hit class: no change
- caspase hit class: no change
- Outcome: inactive

OGDH #1
- viability relative to mock: 0.62
- caspase activity relative to mock: 2.4
- viability hit class: no change
- caspase hit class: no change
- Outcome: inactive

OGDH #2
- viability relative to mock: 0.63
- caspase activity relative to mock: 1.15
- viability hit class: no change
- caspase hit class: no change
- Outcome: inactive

OGDH #3
- viability relative to mock: 0.28
- caspase activity relative to mock: 3.34
- viability hit class: reduced viability
- caspase hit class: caspase activation
- Outcome: active

OGDH #4
- viability relative to mock: 0.7
- caspase activity relative to mock: 1
- viability hit class: no change
- caspase hit class: no change
- Outcome: inactive

CHD4 #1
- viability relative to mock: 0.94
- caspase activity relative to mock: 2.13
- viability hit class: no change
- caspase hit class: no change
- Outcome: inactive

CHD4 #2
- viability relative to mock: 0.98
- caspase activity relative to mock: 1
- viability hit class: no change
- caspase hit class: no change
- Outcome: inactive

CHD4 #3
- viability relative to mock: 0.92
- caspase activity relative to mock: 2.17
- viability hit class: no change
- caspase hit class: no change
- Outcome: inactive

CHD4 #4
- viability relative to mock: 0.98
- caspase activity relative to mock: 1.93
- viability hit class: no change
- caspase hit class: no change
- Outcome: inactive

GABRR3 #1
- viability relative to mock: 0.66
- caspase activity relative to mock: 3.26
- viability hit class: no change
- caspase hit class: caspase activation
- Outcome: active

GABRR3 #2
- viability relative to mock: 0.96
- caspase activity relative to mock: 0.77
- viability hit class: no change
- caspase hit class: no change
- Outcome: inactive

GABRR3 #3
- viability relative to mock: 0.44
- caspase activity relative to mock: 1.62
- viability hit class: reduced viability
- caspase hit class: no change
- Outcome: active

GABRR3 #4
- viability relative to mock: 0.88
- caspase activity relative to mock: 1
- viability hit class: no change
- caspase hit class: no change
- Outcome: inactive

CCBE1 #1
- viability relative to mock: 0.27
- caspase activity relative to mock: 1.86
- viability hit class: no change
- caspase hit class: no change
- Outcome: inactive

CCBE1 #2
- viability relative to mock: 0.92
- caspase activity relative to mock: 2.5
- viability hit class: no change
- caspase hit class: no change
- Outcome: inactive

CCBE1 #3
- viability relative to mock: 0.68
- caspase activity relative to mock: 1.68
- viability hit class: no change
- caspase hit class: no change
- Outcome: inactive

CCBE1 #4
- viability relative to mock: 0.93
- caspase activity relative to mock: 1.39
- viability hit class: no change
- caspase hit class: no change
- Outcome: inactive

PMS2 #1
- viability relative to mock: 1.01
- caspase activity relative to mock: 1.03
- viability hit class: no change
- caspase hit class: no change
- Outcome: inactive

PMS2 #2
- viability relative to mock: 0.91
- caspase activity relative to mock: 0.91
- viability hit class: no change
- caspase hit class: no change
- Outcome: inactive

PMS2 #3
- viability relative to mock: 0.25
- caspase activity relative to mock: 2.5
- viability hit class: reduced viability
- caspase hit class: no change
- Outcome: active

PMS2 #4
- viability relative to mock: 0.92
- caspase activity relative to mock: 0.88
- viability hit class: no change
- caspase hit class: no change
- Outcome: inactive

3 entries from above in another layout.
gene symbol | reagent | viability relative to mock | caspase activity relative to mock | viability hit class | caspase hit class | Outcome
QTRT1 | 4 | 0.94 | 1.31 | no change | no change | inactive
OGDH | 1 | 0.62 | 2.4 | no change | no change | inactive
OGDH | 2 | 0.63 | 1.15 | no change | no change | inactive
